Measurements published in article doi:10.1101/2020.11.12.379222.
No constants are given. Whether binding was seen depends on the method and setting. In cells and extracts the contact can be indirect. Some results given as binding are weak or reduced against the parent protein; the word gives no strength.

Chains of the proteins cited; added tags and fusions are not shown. Lines headed by an entry give the natural chain unless they say otherwise; changes in a name come on top. A line that says so, or that is headed by a name, gives the form on record, which may keep a tag or linker. Residues count along the entry.
SHANK3 SPN-ARR WT-mRFP (Q9JLU4, residues 1-348): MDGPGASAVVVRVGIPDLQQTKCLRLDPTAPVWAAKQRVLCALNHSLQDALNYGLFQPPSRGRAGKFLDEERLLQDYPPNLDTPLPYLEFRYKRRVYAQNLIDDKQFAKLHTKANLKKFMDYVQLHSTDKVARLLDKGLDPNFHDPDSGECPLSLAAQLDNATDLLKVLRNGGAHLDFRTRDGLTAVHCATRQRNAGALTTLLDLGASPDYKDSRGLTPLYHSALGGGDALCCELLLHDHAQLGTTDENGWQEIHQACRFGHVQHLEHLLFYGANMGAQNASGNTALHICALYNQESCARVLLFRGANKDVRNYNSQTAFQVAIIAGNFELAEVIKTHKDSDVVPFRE
GFP SHANK3 SPN domain, wild type (Q9JLU4, residues 1-92): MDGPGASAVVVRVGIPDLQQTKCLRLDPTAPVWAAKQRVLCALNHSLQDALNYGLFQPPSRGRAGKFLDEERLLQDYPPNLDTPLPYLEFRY
SHANK3 SPN-ARR N52R-mRFP (Q9JLU4, form named): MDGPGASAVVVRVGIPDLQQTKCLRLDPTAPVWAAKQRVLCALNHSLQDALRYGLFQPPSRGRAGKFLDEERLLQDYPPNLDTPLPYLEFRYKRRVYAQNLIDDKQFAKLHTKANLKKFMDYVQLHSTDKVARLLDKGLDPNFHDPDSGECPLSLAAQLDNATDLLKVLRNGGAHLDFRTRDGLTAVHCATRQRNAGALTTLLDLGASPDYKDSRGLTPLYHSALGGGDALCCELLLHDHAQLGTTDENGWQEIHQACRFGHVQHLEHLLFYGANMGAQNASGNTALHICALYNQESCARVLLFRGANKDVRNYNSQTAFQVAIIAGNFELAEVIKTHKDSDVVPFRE
UniProt P62834: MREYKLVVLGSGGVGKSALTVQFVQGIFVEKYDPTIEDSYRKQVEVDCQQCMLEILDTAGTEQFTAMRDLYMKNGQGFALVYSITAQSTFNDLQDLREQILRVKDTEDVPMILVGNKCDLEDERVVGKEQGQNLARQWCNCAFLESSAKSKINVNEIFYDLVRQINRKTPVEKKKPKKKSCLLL

Experiments:
[1] = target: His6/SUMO-tagged SHANK3 SPN-ARR, wild type (rat) (UniProt Q9JLU4); test: pull-down
[2] = target: SHANK3 SPN-ARR WT-mRFP (rat) (UniProt Q9JLU4); test: co-IP
[3] = target: SHANK3 SPN-ARR N52R-mRFP (rat) (UniProt Q9JLU4); test: co-IP

Substance: GFP Rap1 Q63E (constitutively active human Rap1A) (from UniProt P62834 1-184)
- binding [1]: binds

Substance: GFP SHANK3 SPN domain, wild type (from UniProt Q9JLU4 1-92) (domain or fragment)
- binding [2]: no binding
- binding [3]: binds
